At least one read-out could not be matched to a standard name with certainty. * marks the point of attachment. Acm = CC(=O)NC*
Tested on: plasmid nucleic acid pRSVLuc
Experiment: Surface plasmon resonance (BIAcore) binding kinetics of peptides/conjugates to immobilized biotinylated plasmid DNA
Conditions: dissociation half-life; SPR, PBS, 25° C.
Experimental: In the examples described below, SPR was detected using the BIAcore system. This machine contained an SPR detector and an integrated microfluidic cartridge which is engineered such that an analyte solution (cationic peptide) is continuously passed over the sensor chip. The sensor chip consists of a glass plate coated with a thin film of gold covered in a layer of carboyxymethyl dextran. The chip used has a dextran layer to which streptavidin is covalently attached. The chip is prepared for use by adding biotinylated nucleic acid which will be bound to the chip via the streptavidin-biotin interaction, and the same chip is used in a series of experiments.
As material binds to the immobilized nucleic acid molecule on the sensor chip, the SPR angle of plane polarized light shining on the surface of the chip is monitored by the detector. Changes in angle are defined as resonance units (RU) and data are collected every second. Background effects are detected and automatically subtracted by the use of a control flow cell in line with the nucleic acid flow cell. […]
The data was analysed using the methods described in the handbook (BIAevaluation 2.1. Software Handbook, Pharmacia Biosensor AB, Uppsala, Sweden).
Essentially the plots were evaluated as follows: The dissociation constant, kd, was determined first. […]

Substance | t1/2
H-KPKAAKPKKPKKKRKVEKKSPKKAKKPAAC(Acm)-OH [NBC2] | 1.23 min
H-TRPAWRRAKRRAARRCGVSARRAARRAWRRE-OH [NBC7] | 86.47 min

— patent US6218112A, “Optimization of gene delivery and gene delivery system” (Cobra Therapeutics Limited, priority 1997, dated 2001)
